Data reported in article doi:10.1101/2025.10.30.684516.
No constants are given. Whether binding was seen depends on the method and setting. In cells and extracts the contact can be indirect. These calls come from enrichment with a bait or labelling near it, and not all partners need be listed.

Sequences of proteins named here, by UniProt entry; tags and fusion partners are left off. Residues count along the entry.
UniProt Q9H4A4: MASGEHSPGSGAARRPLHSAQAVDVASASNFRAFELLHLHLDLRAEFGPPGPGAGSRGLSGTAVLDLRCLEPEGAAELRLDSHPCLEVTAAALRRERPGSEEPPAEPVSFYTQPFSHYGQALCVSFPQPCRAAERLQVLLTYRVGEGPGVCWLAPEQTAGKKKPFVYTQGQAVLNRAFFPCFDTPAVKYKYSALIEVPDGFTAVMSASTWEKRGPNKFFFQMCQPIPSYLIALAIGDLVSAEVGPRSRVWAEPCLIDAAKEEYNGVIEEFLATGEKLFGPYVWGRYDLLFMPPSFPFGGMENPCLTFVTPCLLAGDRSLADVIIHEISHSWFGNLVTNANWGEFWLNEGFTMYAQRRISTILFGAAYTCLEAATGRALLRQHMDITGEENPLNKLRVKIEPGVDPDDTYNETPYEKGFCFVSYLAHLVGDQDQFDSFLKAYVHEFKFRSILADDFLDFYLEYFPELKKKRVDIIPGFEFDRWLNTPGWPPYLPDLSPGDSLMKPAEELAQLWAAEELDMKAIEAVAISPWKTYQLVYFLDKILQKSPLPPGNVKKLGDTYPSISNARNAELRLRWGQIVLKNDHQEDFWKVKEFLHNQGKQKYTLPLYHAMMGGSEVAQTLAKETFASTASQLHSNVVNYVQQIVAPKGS
UniProt P31947: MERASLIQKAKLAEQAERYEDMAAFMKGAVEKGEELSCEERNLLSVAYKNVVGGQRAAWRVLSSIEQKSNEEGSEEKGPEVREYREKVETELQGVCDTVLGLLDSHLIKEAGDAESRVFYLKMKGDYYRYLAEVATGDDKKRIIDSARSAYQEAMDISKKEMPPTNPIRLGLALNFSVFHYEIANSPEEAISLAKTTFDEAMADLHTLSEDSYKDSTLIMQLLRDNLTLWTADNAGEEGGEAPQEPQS
UniProt P0DMV8: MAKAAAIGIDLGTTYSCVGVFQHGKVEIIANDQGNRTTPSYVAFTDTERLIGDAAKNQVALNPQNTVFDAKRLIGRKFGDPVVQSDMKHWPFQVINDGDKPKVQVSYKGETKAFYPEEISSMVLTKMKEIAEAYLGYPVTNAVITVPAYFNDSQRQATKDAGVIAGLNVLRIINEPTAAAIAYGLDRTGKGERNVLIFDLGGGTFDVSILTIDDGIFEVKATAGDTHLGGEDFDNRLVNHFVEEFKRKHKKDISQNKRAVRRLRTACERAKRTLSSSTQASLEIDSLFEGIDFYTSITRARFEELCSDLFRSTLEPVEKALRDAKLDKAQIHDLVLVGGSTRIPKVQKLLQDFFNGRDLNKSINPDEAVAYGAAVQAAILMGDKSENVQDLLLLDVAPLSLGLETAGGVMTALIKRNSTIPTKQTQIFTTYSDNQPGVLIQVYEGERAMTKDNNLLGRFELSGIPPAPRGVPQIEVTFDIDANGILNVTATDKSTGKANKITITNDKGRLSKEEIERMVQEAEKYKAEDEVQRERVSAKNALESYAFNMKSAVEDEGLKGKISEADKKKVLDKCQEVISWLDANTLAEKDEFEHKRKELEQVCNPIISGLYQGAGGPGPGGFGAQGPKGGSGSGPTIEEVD
UniProt O75027, residues 23-752: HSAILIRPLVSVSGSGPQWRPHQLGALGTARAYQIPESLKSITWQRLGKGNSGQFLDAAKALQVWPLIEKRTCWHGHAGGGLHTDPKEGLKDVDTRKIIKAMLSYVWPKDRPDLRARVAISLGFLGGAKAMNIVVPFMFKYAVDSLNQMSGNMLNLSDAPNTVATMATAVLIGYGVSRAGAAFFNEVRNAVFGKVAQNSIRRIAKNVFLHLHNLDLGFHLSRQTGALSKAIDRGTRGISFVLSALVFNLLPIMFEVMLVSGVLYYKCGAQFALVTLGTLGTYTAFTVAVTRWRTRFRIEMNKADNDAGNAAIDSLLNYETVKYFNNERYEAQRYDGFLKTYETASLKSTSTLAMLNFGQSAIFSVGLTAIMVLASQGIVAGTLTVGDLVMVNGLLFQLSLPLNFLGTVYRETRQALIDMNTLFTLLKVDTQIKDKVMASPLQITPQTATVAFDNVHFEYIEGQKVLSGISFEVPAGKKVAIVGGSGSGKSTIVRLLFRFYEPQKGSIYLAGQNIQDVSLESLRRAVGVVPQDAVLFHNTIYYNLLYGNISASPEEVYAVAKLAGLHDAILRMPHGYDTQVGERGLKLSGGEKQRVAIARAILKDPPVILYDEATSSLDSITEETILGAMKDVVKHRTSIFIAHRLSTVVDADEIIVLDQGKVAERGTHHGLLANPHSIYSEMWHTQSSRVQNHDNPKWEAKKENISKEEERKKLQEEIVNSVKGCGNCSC
UniProt Q9BQE3: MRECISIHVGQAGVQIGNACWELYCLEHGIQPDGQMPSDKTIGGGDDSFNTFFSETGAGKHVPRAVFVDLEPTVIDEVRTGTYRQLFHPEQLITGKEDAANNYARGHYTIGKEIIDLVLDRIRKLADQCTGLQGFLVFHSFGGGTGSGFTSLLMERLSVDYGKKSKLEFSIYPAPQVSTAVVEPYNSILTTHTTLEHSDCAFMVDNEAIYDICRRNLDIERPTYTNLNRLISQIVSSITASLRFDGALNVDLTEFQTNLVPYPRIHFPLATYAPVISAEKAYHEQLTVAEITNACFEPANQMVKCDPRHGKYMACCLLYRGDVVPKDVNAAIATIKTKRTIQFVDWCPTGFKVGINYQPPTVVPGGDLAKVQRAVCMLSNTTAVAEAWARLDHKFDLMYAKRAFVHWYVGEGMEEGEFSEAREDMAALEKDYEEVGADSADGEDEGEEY
UniProt P51531: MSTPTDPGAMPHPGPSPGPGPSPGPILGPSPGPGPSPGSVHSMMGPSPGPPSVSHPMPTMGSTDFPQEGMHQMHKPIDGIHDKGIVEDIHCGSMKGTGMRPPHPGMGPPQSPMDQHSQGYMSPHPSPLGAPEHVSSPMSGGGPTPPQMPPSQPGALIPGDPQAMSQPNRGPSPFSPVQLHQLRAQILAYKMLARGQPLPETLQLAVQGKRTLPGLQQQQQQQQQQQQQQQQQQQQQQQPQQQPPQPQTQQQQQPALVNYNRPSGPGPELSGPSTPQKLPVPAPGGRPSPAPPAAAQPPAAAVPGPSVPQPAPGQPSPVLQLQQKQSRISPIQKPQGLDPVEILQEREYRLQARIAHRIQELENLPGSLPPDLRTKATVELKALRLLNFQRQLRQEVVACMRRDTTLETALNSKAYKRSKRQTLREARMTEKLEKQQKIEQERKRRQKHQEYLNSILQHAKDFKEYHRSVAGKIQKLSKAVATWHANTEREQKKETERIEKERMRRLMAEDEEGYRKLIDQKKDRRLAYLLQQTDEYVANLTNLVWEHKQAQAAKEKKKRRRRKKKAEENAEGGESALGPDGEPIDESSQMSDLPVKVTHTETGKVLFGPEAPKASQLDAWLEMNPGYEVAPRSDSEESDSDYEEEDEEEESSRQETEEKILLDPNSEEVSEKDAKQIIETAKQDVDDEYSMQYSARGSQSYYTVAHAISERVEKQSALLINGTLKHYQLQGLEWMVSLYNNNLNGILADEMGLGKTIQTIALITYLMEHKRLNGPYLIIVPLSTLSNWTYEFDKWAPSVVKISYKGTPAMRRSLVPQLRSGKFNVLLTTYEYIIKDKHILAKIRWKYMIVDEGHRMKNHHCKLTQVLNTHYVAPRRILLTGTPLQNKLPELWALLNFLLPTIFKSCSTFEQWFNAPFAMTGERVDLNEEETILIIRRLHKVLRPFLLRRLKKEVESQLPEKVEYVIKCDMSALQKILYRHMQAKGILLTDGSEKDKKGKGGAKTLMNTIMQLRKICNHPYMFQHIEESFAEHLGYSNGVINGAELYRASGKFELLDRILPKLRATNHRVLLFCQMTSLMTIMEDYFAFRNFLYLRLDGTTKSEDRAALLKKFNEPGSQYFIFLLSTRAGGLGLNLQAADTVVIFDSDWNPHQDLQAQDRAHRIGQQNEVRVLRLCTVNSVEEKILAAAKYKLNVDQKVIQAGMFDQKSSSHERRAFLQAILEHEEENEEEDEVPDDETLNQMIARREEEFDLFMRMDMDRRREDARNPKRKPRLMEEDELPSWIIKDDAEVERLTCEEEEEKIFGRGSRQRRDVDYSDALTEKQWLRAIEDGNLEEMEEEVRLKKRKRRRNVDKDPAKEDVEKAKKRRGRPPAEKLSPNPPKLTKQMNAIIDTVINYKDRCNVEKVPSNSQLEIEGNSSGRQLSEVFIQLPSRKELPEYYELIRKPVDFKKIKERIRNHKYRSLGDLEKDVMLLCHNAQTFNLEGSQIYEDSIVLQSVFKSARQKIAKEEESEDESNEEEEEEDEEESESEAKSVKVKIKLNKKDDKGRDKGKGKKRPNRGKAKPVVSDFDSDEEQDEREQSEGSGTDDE
UniProt O00151: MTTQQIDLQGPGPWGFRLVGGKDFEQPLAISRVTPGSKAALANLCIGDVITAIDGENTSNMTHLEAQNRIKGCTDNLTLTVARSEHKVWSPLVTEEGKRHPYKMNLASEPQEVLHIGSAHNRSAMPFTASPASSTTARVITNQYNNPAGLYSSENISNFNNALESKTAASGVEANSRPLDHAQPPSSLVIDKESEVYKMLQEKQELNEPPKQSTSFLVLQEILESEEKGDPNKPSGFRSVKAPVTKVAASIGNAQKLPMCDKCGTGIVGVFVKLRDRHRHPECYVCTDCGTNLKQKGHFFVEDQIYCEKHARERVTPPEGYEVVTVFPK
UniProt P50995: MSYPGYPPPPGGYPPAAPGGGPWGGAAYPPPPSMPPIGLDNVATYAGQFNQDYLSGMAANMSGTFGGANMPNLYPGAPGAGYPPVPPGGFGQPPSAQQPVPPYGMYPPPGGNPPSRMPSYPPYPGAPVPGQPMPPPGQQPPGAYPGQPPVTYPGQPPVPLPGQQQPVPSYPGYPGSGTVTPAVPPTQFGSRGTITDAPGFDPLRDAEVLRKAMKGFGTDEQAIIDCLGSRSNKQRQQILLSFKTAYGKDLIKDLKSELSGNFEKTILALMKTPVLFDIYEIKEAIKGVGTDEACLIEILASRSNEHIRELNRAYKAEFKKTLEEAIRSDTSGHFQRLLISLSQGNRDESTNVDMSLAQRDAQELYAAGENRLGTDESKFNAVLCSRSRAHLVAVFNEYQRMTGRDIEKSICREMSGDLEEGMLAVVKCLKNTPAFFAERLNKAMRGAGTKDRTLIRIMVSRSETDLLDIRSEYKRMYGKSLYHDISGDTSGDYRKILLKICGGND
UniProt Q15631: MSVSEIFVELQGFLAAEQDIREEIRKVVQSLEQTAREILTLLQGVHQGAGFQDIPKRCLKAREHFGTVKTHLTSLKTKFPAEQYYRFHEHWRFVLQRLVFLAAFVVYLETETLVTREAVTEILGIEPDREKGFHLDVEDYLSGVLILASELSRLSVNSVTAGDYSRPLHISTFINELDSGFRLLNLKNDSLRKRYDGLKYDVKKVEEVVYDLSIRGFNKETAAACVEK
UniProt Q9UBN7: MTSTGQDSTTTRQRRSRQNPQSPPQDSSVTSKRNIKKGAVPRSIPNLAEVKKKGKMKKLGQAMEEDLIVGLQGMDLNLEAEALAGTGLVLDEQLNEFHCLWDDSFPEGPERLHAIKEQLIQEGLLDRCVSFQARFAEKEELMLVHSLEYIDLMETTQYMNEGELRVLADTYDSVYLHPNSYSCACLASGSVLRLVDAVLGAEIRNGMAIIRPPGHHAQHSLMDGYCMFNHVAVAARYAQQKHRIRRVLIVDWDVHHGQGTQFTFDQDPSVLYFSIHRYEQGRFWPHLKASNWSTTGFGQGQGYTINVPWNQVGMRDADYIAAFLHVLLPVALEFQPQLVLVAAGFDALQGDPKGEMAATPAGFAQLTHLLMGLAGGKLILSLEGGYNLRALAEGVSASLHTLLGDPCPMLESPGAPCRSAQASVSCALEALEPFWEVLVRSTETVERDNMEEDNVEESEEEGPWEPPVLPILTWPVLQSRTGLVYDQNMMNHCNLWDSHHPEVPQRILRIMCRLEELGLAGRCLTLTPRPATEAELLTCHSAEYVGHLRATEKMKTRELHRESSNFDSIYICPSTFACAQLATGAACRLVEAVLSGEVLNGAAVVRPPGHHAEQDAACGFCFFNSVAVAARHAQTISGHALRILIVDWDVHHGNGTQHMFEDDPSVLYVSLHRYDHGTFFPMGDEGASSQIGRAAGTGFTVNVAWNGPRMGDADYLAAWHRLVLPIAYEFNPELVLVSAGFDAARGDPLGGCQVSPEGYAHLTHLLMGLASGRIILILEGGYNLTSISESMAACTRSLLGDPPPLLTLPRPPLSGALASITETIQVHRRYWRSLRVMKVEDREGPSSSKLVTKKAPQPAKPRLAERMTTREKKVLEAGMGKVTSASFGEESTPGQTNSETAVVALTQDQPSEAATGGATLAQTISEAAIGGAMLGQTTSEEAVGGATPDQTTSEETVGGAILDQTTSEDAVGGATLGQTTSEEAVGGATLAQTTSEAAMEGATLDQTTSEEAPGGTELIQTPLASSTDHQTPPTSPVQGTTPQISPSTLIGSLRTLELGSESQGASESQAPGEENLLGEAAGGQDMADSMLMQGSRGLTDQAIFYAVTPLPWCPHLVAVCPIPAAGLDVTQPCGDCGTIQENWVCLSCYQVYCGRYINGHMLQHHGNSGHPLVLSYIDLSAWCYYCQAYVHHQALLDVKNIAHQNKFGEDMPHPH

B1: TIAL1 (protein, UniProt Q01085 1-375)
chain: MMEDDGQPRTLYVGNLSRDVTEVLILQLFSQIGPCKSCKMITEHTSNDPYCFVEFYEHRDAAAALAAMNGRKILGKEVKVNWATTPSSQKKDTSNHFHVFVGDLSPEITTEDIKSAFAPFGKISDARVVKDMATGKSKGYGFVSFYNKLDAENAIVHMGGQWLGGRQIRTNWATRKPPAPKSTQENNTKQLRFEDVVNQSSPKNCTVYCGGIASGLTDQLMRQTFSPFGQIMEIRVFPEKGYSFVRFSTHESAAHAIVSVNGTTIEGHVVKCYWGKESPDMTKNFQQVDYSQWGQWSQVYGNPQQYGQYMANGWQVPPYGVYGQPWNQQGFGVDQSPSAAWMGGFGAQPPQGQAPPPVIPPPNQAGYGMASYQTQ
B2: SRSF11 (protein, UniProt Q05519 1-484)
chain: MSNTTVVPSTAGPGPSGGPGGGGGGGGGGGGTEVIQVTNVSPSASSEQMRTLFGFLGKIDELRLFPPDDSPLPVSSRVCFVKFHDPDSAVVAQHLTNTVFVDRALIVVPYAEGVIPDEAKALSLLAPANAVAGLLPGGGLLPTPNPLTQIGAVPLAALGAPTLDPALAALGLPGANLNSQSLAADQLLKLMSTVDPKLNHVAAGLVSPSLKSDTSSKEIEEAMKRVREAQSLISAAIEPDKKEEKRRHSRSRSRSRRRRTPSSSRHRRSRSRSRRRSHSKSRSRRRSKSPRRRRSHSRERGRRSRSTSKTRDKKKEDKEKKRSKTPPKSYSTARRSRSASRERRRRRSRSGTRSPKKPRSPKRKLSRSPSPRRHKKEKKKDKDKERSRDERERSTSKKKKSKDKEKDRERKSESDKDVKQVTRDYDEEEQGYDSEKEKKEEKKPIETGSPKTKECSVEKGTGDSLRESKVNGDDHHEEDMDMSD
B3: SRSF7 (protein, UniProt Q16629 1-238)
chain: MSRYGRYGGETKVYVGNLGTGAGKGELERAFSYYGPLRTVWIARNPPGFAFVEFEDPRDAEDAVRGLDGKVICGSRVRVELSTGMPRRSRFDRPPARRPFDPNDRCYECGEKGHYAYDCHRYSRRRRSRSRSRSHSRSRGRRYSRSRSRSRGRRSRSASPRRSRSISLRRSRSASLRRSRSGSIKGSRYFQSPSRSRSRSRSISRPRSSRSKSRSPSPKRSRSPSGSPRRSASPERMD
B4: SCARB2 (protein, UniProt Q14108 1-478)
chain: MGRCCFYTAGTLSLLLLVTSVTLLVARVFQKAVDQSIEKKIVLRNGTEAFDSWEKPPLPVYTQFYFFNVTNPEEILRGETPRVEEVGPYTYRELRNKANIQFGDNGTTISAVSNKAYVFERDQSVGDPKIDLIRTLNIPVLTVIEWSQVHFLREIIEAMLKAYQQKLFVTHTVDELLWGYKDEILSLIHVFRPDISPYFGLFYEKNGTNDGDYVFLTGEDSYLNFTKIVEWNGKTSLDWWITDKCNMINGTDGDSFHPLITKDEVLYVFPSDFCRSVYITFSDYESVQGLPAFRYKVPAEILANTSDNAGFCIPEGNCLGSGVLNVSICKNGAPIIMSFPHFYQADERFVSAIEGMHPNQEDHETFVDINPLTGIILKAAKRFQINIYVKKLDDFVETGDIRTMVFPVMYLNESVHIDKETASRLKSMINTTLIITNIPYIIMALGVFFGLVFTWLACKGQGSMDEGTADERAPLIRT
B5: GTF3C4 (protein, UniProt Q9UKN8 1-822)
chain: MNTADQARVGPADDGPAPSGEEEGEGGGEAGGKEPAADAAPGPSAAFRLMVTRREPAVKLQYAVSGLEPLAWSEDHRVSVSTARSIAVLELICDVHNPGQDLVIHRTSVPAPLNSCLLKVGSKTEVAECKEKFAASKDPTVSQTFMLDRVFNPEGKALPPMRGFKYTSWSPMGCDANGRCLLAALTMDNRLTIQANLNRLQWVQLVDLTEIYGERLYETSYRLSKNEAPEGNLGDFAEFQRRHSMQTPVRMEWSGICTTQQVKHNNECRDVGSVLLAVLFENGNIAVWQFQLPFVGKESISSCNTIESGITSPSVLFWWEYEHNNRKMSGLIVGSAFGPIKILPVNLKAVKGYFTLRQPVILWKEMDQLPVHSIKCVPLYHPYQKCSCSLVVAARGSYVFWCLLLISKAGLNVHNSHVTGLHSLPIVSMTADKQNGTVYTCSSDGKVRQLIPIFTDVALKFEHQLIKLSDVFGSVRTHGIAVSPCGAYLAIITTEGMINGLHPVNKNYQVQFVTLKTFEEAAAQLLESSVQNLFKQVDLIDLVRWKILKDKHIPQFLQEALEKKIESSGVTYFWRFKLFLLRILYQSMQKTPSEALWKPTHEDSKILLVDSPGMGNADDEQQEEGTSSKQVVKQGLQERSKEGDVEEPTDDSLPTTGDAGGREPMEEKLLEIQGKIEAVEMHLTREHMKRVLGEVYLHTWITENTSIPTRGLCNFLMSDEEYDDRTARVLIGHISKKMNKQTFPEHCSLCKEILPFTDRKQAVCSNGHIWLRCFLTYQSCQSLIYRRCLLHDSIARHPAPEDPDWIKRLLQSPCPFCDSPVF

What follows are molecules tested against VIM-APEX2-GFP (UniProt P08670) (assay: proximity labelling).

Q: For RNPEP (from UniProt Q9H4A4 1-650), which binding is on record?
A: The binding was “binds”.

Q: SFN (from UniProt P31947 1-248) was tested. Which binding did it give?
A: Its binding is “binds”.

Q: For DNAJC19 (from UniProt Q96DA6 1-116), which binding is on record?
A: Its binding is “binds”.

Q: Which binding does the source give for ARF6 (from UniProt P62330 1-175) here?
A: Its binding is “binds”.

Q: For EIF4A2 (from UniProt Q14240 1-407), which binding is on record?
A: The binding was “binds”.

Q: Which binding does the source give for RAB8A (from UniProt P61006 1-207) here?
A: The binding was “binds”.

Q: With “ISG15 (Interferon-Stimulated Gene 15) (from UniProt P05161 1-157)” as the molecule, how does the binding read?
A: The binding was “binds”.

Q: With SMAD2 (from UniProt Q15796 1-467) as the molecule, how does the binding read?
A: Its binding is “binds”.

Q: With BAG3 (from UniProt O95817 1-575) as the molecule, how does the binding read?
A: The binding was “binds”.

Q: Which binding does the source give for ATP6V1G1 (from UniProt O75348 1-118) here?
A: Its binding is “binds”.

Q: With MAPRE2 (from UniProt Q15555 1-327) as the molecule, how does the binding read?
A: Its binding is “binds”.

Q: HSPA1A (from UniProt P0DMV8 1-641) was tested. Which binding did it give?
A: The binding was “binds”.

Q: Which binding does the source give for SNX12 (from UniProt Q9UMY4 1-162) here?
A: Its binding is “binds”.

Q: How did the binding turn out when “MAP4 (Microtubule associated protein 4) (from UniProt P27816 1-1152)” was run?
A: Its binding is “binds”.

Q: Which binding does the source give for “G6PD (Glucose-6-phosphate dehydrogenase) (from UniProt P11413 1-515)” here?
A: Its binding is “binds”.

Q: ABCD1 (from UniProt P33897 1-745) was tested. Which binding did it give?
A: The binding was “binds”.

Q: With CPNE3 (from UniProt O75131 1-537) as the molecule, how does the binding read?
A: The binding was “binds”.

Q: How did the binding turn out when GNA11 (from UniProt P29992 1-359) was run?
A: The binding was “binds”.

Q: How did the binding turn out when ABCB7 (from UniProt O75027 23-752) was run?
A: The binding was “binds”.

Q: RAB35 (from UniProt Q15286 1-201) was tested. Which binding did it give?
A: The binding was “binds”.

Q: HNRNPAB (from UniProt Q99729 1-332) was tested. Which binding did it give?
A: The binding was “binds”.

Q: For TUBA1C (from UniProt Q9BQE3 1-449), which binding is on record?
A: The binding was “binds”.

Q: Which binding does the source give for SMARCA2 (from UniProt P51531 1-1590) here?
A: The binding was “binds”.

Q: PDLIM1 (from UniProt O00151 1-329) was tested. Which binding did it give?
A: Its binding is “binds”.

Q: How did the binding turn out when ANXA11 (from UniProt P50995 1-505) was run?
A: Its binding is “binds”.

Q: Which binding does the source give for DHFR (from UniProt P00374 1-187) here?
A: Its binding is “binds”.

Q: Which binding does the source give for “RPS6KA3 (Ribosomal Protein S6 Kinase A3) (from UniProt P51812 1-740)” here?
A: The binding was “binds”.

Q: Hsp27 (from UniProt P04792 1-205) was tested. Which binding did it give?
A: Its binding is “binds”.

Q: Which binding does the source give for TSN (from UniProt Q15631 1-228) here?
A: The binding was “binds”.

Q: Which binding does the source give for MTMR2 (from UniProt Q13614 1-643) here?
A: Its binding is “binds”.

Q: How did the binding turn out when SRPK1 (from UniProt Q96SB4 1-655) was run?
A: The binding was “binds”.

Q: With FUS (from UniProt P35637 1-526) as the molecule, how does the binding read?
A: Its binding is “binds”.

These molecules were tested against HDAC6-APEX2-GFP (UniProt Q9UBN7) (assay: proximity labelling).

Q: B1 was tested. Which binding did it give?
A: The binding was “binds”.

Q: B2 was tested. Which binding did it give?
A: Its binding is “binds”.

Q: For B3, which binding is on record?
A: Its binding is “binds”.

Molecular target: VIM-APEX2-GFP (UniProt P08670)
Test: proximity labelling
Remark: another data set of the same source

Q: How did the binding turn out when B4 was run?
A: The binding was “binds”.

Q: How did the binding turn out when B5 was run?
A: Its binding is “binds”.
